In doi:10.1101/2023.04.25.538284 (bioRxiv, 2023):
These are yes or no findings as the source states them, for the method shown. For some of these results: In cells and extracts the contact can be indirect. Some entries that bind do so weakly or less than the wild type.

T1: pGBKT7-SnRK2.4 (Arabidopsis thaliana) (UniProt P43291)
T1 sequence: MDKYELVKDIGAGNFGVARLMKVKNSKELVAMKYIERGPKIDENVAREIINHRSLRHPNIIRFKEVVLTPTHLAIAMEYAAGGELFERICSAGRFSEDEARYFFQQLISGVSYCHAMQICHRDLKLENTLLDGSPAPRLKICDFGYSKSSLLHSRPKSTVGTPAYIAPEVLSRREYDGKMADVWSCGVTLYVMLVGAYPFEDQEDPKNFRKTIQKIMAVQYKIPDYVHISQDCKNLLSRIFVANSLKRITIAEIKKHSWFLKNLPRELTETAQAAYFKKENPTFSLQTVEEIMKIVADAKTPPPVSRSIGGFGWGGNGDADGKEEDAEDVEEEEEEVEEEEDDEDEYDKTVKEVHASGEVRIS

T2: pGBKT7-SnRK2.6 (Arabidopsis thaliana) (UniProt Q940H6)
T2 sequence: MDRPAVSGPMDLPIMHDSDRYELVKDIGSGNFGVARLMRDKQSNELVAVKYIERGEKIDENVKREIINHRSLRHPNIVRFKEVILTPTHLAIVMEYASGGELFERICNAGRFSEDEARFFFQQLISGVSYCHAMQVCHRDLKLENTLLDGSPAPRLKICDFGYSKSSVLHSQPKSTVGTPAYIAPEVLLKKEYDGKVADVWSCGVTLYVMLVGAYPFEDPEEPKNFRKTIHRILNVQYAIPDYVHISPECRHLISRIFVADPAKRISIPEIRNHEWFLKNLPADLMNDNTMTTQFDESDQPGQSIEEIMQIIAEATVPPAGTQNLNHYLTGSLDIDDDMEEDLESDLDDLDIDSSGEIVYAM

T3: SnRK2.4-YNE (Arabidopsis thaliana) (UniProt P43291)
T3 sequence: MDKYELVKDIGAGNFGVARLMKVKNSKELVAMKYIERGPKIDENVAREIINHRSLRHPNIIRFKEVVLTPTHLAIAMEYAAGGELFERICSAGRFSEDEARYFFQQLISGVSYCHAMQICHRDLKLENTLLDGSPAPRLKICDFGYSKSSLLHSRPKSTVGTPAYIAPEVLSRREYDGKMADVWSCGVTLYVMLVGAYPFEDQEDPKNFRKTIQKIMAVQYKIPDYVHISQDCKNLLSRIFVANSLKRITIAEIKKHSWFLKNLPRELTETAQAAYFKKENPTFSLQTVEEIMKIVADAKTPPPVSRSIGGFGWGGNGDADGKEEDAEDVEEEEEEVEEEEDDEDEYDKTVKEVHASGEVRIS

T4: SnRK2.6-YNE (Arabidopsis thaliana) (UniProt Q940H6)
T4 sequence: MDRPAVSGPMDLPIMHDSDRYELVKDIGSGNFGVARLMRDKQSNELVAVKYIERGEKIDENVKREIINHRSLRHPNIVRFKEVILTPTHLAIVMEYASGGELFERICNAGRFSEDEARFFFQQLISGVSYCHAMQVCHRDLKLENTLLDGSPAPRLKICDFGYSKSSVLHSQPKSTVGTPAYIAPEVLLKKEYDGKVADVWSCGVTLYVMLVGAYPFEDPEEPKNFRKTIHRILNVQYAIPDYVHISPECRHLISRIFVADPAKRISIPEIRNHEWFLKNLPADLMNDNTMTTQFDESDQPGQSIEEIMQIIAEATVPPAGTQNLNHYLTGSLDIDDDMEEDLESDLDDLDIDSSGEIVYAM


Key:
[1] = target: T1, pGBKT7-SnRK2.4 (Arabidopsis thaliana); assay: two-hybrid
[2] = target: T2, pGBKT7-SnRK2.6 (Arabidopsis thaliana); assay: two-hybrid
[3] = target: T3, SnRK2.4-YNE (Arabidopsis thaliana); assay: split reporter
[4] = target: T4, SnRK2.6-YNE (Arabidopsis thaliana); assay: split reporter

binding [1] | binding [2] | binding [3] | binding [4] | Binder
binds | binds | – | – | SIZ1 in pGADT7 (enzyme, UniProt Q680Q4-3 1-873) MDLEANCKEKLSYFRIKELKDVLTQLGLSKQGKKQELVDRILTLLSDEQAARLLSKKNTVAKEAVAKLVDDTYRKMQVSGASDLASKGQVSSDTSNLKVKGEPEDPFQPEIKVRCVCGNSLETDSMIQCEDPRCHVWQHVGCVILPDKPMDGNPPLPESFYCEICRLTRADPFWVTVAHPLSPVRLTATTIPNDGASTMQSVERTFQITRADKDLLAKPEYDVQAWCMLLNDKVLFRMQWPQYADLQVNGVPVRAINRPGGQLLGVNGRDDGPIITSCIRDGVNRISLSGGDVRIFCFGVRLVKRRTLQQVLNLIPEEGKGETFEDALARVRRCIGGGGGDDNADSDSDIEVVADFFGVNLRCPMSGSRIKVAGRFLPCVHMGCFDLDVFVELNQRSRKWQCPICLKNYSVEHVIVDPYFNRITSKMKHCDEEVTEIEVKPDGSWRVKFKRESERRELGELSQWHAPDGSLCPSAVDIKRKMEMLPVKQEGYSDGPAPLKLGIRKNRNGIWEVSKPNTNGLSSSNRQEKVGYQEKNIIPMSSSATGSGRDGDDASVNQDAIGTFDFVANGMELDSISMNVDSGYNFPDRNQSGEGGNNEVIVLSDSDDENDLVITPGPAYSGCQTDGGLTFPLNPPGIINSYNEDPHSIAGGSSGLGLFNDDDEFDTPLWSFPSETPEAPGFQLFRSDADVSGGLVGLHHHSPLNCSPEINGGYTMAPETSMASVPVVPGSTGRSEANDGLVDNPLAFGRDDPSLQIFLPTKPDASAQSGFKNQADMSNGLRSEDWISLRLGDSASGNHGDPATTNGINSSHQMSTREGSMDTTTETASLLLGMNDSRQDKAKKQRSDNPFSFPRQKRSVRPRMYLSIDSDSE
– | – | binds | binds | SIZ1-YCE (enzyme, UniProt Q680Q4-3 1-873) MDLEANCKEKLSYFRIKELKDVLTQLGLSKQGKKQELVDRILTLLSDEQAARLLSKKNTVAKEAVAKLVDDTYRKMQVSGASDLASKGQVSSDTSNLKVKGEPEDPFQPEIKVRCVCGNSLETDSMIQCEDPRCHVWQHVGCVILPDKPMDGNPPLPESFYCEICRLTRADPFWVTVAHPLSPVRLTATTIPNDGASTMQSVERTFQITRADKDLLAKPEYDVQAWCMLLNDKVLFRMQWPQYADLQVNGVPVRAINRPGGQLLGVNGRDDGPIITSCIRDGVNRISLSGGDVRIFCFGVRLVKRRTLQQVLNLIPEEGKGETFEDALARVRRCIGGGGGDDNADSDSDIEVVADFFGVNLRCPMSGSRIKVAGRFLPCVHMGCFDLDVFVELNQRSRKWQCPICLKNYSVEHVIVDPYFNRITSKMKHCDEEVTEIEVKPDGSWRVKFKRESERRELGELSQWHAPDGSLCPSAVDIKRKMEMLPVKQEGYSDGPAPLKLGIRKNRNGIWEVSKPNTNGLSSSNRQEKVGYQEKNIIPMSSSATGSGRDGDDASVNQDAIGTFDFVANGMELDSISMNVDSGYNFPDRNQSGEGGNNEVIVLSDSDDENDLVITPGPAYSGCQTDGGLTFPLNPPGIINSYNEDPHSIAGGSSGLGLFNDDDEFDTPLWSFPSETPEAPGFQLFRSDADVSGGLVGLHHHSPLNCSPEINGGYTMAPETSMASVPVVPGSTGRSEANDGLVDNPLAFGRDDPSLQIFLPTKPDASAQSGFKNQADMSNGLRSEDWISLRLGDSASGNHGDPATTNGINSSHQMSTREGSMDTTTETASLLLGMNDSRQDKAKKQRSDNPFSFPRQKRSVRPRMYLSIDSDSE
